# Experimental data reported in patent publication US20260174790A1, “HUMAN AND MURINE OPRM1 PROMOTERS AND USES THEREOF” (The Trustees of the University of Pennsylvania, priority 2022, published 2026).
# Tested on: MOR+ CeA neurons
# Assay: In vivo fiber photometry, hot water hind paw stimulation
# Design: species or system mouse
# Settings: mMORp-GCaMP6f mice, morphine i.p. 10 mg/kg 30 minutes prior to hot water hind paw stimulations
structure (smiles),measurement,value
"CN1CC[C@]23c4c5ccc(O)c4O[C@H]2[C@@H](O)C=C[C@H]3[C@H]1C5.O=S(=O)(O)O [morphine, morphine sulfate]",calcium mediated event AUC,7.7
